Screen size: about 53,000 sequences; about 3,700 (7%) were called active.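 How the source made its calls: active means gene knockdowns whose robust z-score for IL-1 alpha signal is at least 2 or at most -2, so actives lie on both sides; inactive means the rest.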 The list shows a part of the results.
test: Components of the Cytosolic LPS Sensing Pathway: Gene Identification via Genome-wide siRNA Screen; details: RAW264.7 macrophages, IL-1a HTRF, actives lie on both sides, screened at 100 nM (by protocol), cells primed 5 h with Pam3CSK4 first;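 further: robust z of the log signal after scaling to non-targeting control siRNA wells of the plate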
Method in brief: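 Using IL-1a HTRF as read-out, the screen measured release from RAW264.7 cells after 48h siRNA knockdown (100 nM), 5 h Pam3CSK4 priming and 24 h cytosolic LipidA. Values were expressed relative to negative-control wells as robust z-scores.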

Row | Sequence | z-score
1 | CGAAUAGUUCCAGAAGACGTT against Cass4 | inactive: 1.86
2 | GGACCUUUAAAGCUAAGCUTT against Ccn5 | inactive: -1.4
3 | CCAAAUGGUGGUGCUGAGUTT against Igsf5 | inactive: -1.87
4 | GGCAACUCUUAAAAAACCATT against Igfbpl1 | inactive: -0.665
5 | GCAGGGUGUCUACUUGUUGTT against Gata4 | inactive: -0.129
6 | GCUGCAUAGAUUCCAUAAUTT against Lxn | inactive: 0.468
7 | GUCUUUAACUCUCCUAUGUTT against 2310034C09Rik | inactive: -0.809
8 | CGAGUUCAUCAAAAAGGAATT against Kansl1l | inactive: 0.708
9 | GGCAUAGGAAAAACAUGAATT against C1qtnf1 | inactive: -1.66
10 | GGUUUCUAUUGUGUUCAUUTT against Birc2 | inactive: -0.771
11 | GGAAGUUUAGUCUCAAAACTT against Csnk1d | inactive: 1.64
12 | GGCUCAAGAAACUGGAGCUTT against Usp21 | inactive: 1.51
13 | AAUGACCUUGACAACAUUUTT against Pdp2 | inactive: 1.89
14 | GGACAGAAAUGGUAAAGAATT against Csde1 | inactive: -0.994
15 | GGAGCACUUGAUUAAACAUTT against Syt10 | inactive: 1.49
16 | GGUUCAGACACCACUUCAGTT against Bgn | active: 2.56
17 | GGUACUAAAUCAAACAUCCTT against Angpt1 | inactive: 0.578
18 | GGACAUCCCAGACAAUUUUTT against Lxn | inactive: -0.986
19 | CCGAGAUGAUUAUUCAUAATT against Slc17a6 | inactive: -0.327
20 | GCUUCCUCGUAUCUACACCTT against Phb | inactive: 1.92
21 | GGAAUGCAAAAAACUCUGGTT against Gzmg | inactive: 0.906
22 | CGUUCUCUUGAAAUAAGCCTT against Pogk | inactive: -0.147

Row | Sequence | z-score
23 | GGAACUGACUGCCUAUUCCTT against Gnb3 | inactive: 1.08
24 | GCCUUUACUGGAUUCAUUGTT against Acadm | active: 2.53
25 | GGUGAACAUUAACAACAGUTT against Ngf | inactive: -1.47
26 | GGUACAGUAUGAUACUCACTT against Olfr678 | inactive: 0.982
27 | CGUUUUCAGAGAUGUGCGCTT against Cmtm5 | inactive: -1
28 | GCAAACCAUGCCUAAUGGATT against Meak7 | inactive: 1.68
29 | GGAUGUGGGUGGAUAUCAUTT against Sit1 | inactive: 0.145
30 | GGACAAAGUACAUUUAUGGTT against Il7r | inactive: -1.39
31 | GGAAGGUAGUGCUAAUCAGTT against Neil2 | inactive: -0.622
32 | GCUGGUUACAUAAAGCUACTT against Slc25a51 | inactive: 0.0694
33 | GGGAAGAAAUAAAAGAAACTT against Haus7 | inactive: -0.841
34 | GGAAAAACAAGAAAGGGAATT against Cdyl | inactive: -0.411
35 | GGAAAUGUGGAGAGAAAAUTT against P2ry4 | inactive: 1.02
36 | CGUGGCUCAAAUUUUCAACTT against Cab39 | inactive: 1.5
37 | CCAUUGCAGCAUACUGUCCTT against Serpina1b | inactive: -0.402
38 | CCUACUGGAGUCUCCUCUUTT against Tmem116 | inactive: 0.36
39 | GGAGCUAUGAUGGCGAUUUTT against Tmtc4 | inactive: -0.272
40 | GCCAACCAAAACCUAAGCATT against Gjc1 | inactive: -1.44
41 | GGUGGAACAAGAAGAGUCCTT against Zkscan3 | inactive: -0.826
42 | GGAUGUCCUGAAAGUAGUUTT against Plscr1 | inactive: -1.03
43 | GCAGGUUCGAAUUCAAGGATT against Gria4 | inactive: 0.483
44 | CGACGACGAGUUUCUCCAUTT against Timm29 | inactive: -1.86

Row | Sequence | z-score
45 | GGACGGUCCUCUUAAAAGATT against Chat | inactive: -0.394
46 | GGACCCUGAUGAGAUGAAUTT against Gcg | inactive: -0.687
47 | GGCCAAAGCCAGAAUCUCATT against Zfp281 | active: 3.07
48 | GGUGGACUAUCCUAAGCACTT against Pdzd4 | inactive: -1.18
49 | ACAUUUUCCGAGGCUUGGUTT against Rtn4rl2 | inactive: -0.936
50 | GGUAUUGAACCAUGGCUUATT against Mcts1 | inactive: -0.456
51 | GGGUUCAGAAUAGAAAGAUTT against Tmigd1 | inactive: -1.28
52 | GGCUGGAUAAAAAUAACUUTT against Heyl | inactive: 0.299
53 | GGAAUGGUAGAAGCAACAGTT against Kcnj5 | inactive: -0.844
54 | GGCUGGUGUAAUCGAAACATT against Ttc39c | inactive: 0.0501
55 | GCAAUCAACAUUGAGAUGUTT against Rufy2 | inactive: -0.15
56 | GUUAGAUGCCCUCAAGUUCTT against Trappc6a | inactive: -0.857
57 | GCUCAUUAACGAGAAAGUGTT against Atxn7l2 | inactive: -0.991
58 | GGAUAUACCCUGUUCUAGGTT against Them6 | inactive: 0.183
59 | GGAGAUCAAUCUAGAUUUGTT against Atpaf1 | inactive: 1.05
60 | GGAGUGCAGUACAAAGGACTT against Ahsa1 | inactive: 0.872
61 | GCCUCAGUUAUUUAAUGAATT against Mpp3 | inactive: -0.414
62 | GGAGCAGGUUACCAGAAAATT against E130114P18Rik | inactive: 0.301
63 | GGCAGAGUAAGAGUGCACUTT against Olfr1238 | inactive: -0.622
64 | GGAACAAAGUUAAAUCCAATT against Vsig1 | inactive: -1.31
65 | GCAGAAUGUCACUAAGUGCTT against Sdcbp2 | inactive: 0.271
66 | GGAGACACAGGAGAGAUACTT against Brd8 | inactive: 0.241

Row | Sequence | z-score
67 | GGCUUUCCGGAGUGAUAGUTT against Scamp3 | inactive: -0.696
68 | GCAGUGUAACAUGAUCAAUTT against Scarb1 | inactive: 1.42
69 | GGCCAAAGAGAUGCUGAAGTT against Spire2 | inactive: 1.35
70 | CCCUGAUUGAUCGGUCUUGTT against Rundc3b | inactive: 0.452
71 | GGGUGUGAAAGUUGUCUUCTT against Foxb1 | inactive: 1.4
72 | CGCAGCAUUGUUAGAUAUUTT against Adss | inactive: 0.98
73 | GGUCAUCGGUACCACCAGATT against Rdh8 | inactive: 0.745
74 | CCUCGAGUCAUGGUGUAUCTT against Ndufb9 | inactive: 0.301
75 | GCGACACACCAGAAGUUAUTT against Fgf7 | inactive: 1.1
76 | GCACACUGAUGAACUUACCTT against Ston2 | active: 2.55
77 | GGACCUGUCCCGUCAAAGATT against Ecrg4 | inactive: 0.607
78 | CCUAAAUUCUUCACCUUCGTT against Tor4a | inactive: -0.275
79 | GCUACUAUGUGCCCUGAUATT against Ms4a7 | inactive: -0.458
80 | GGCAUUAAUAGACCAGUUATT against Pcmt1 | inactive: -1.24
81 | GGAACAUUCCAGAAUAUCATT against Stkld1 | inactive: -0.266
82 | CCAAUUGGGCCACACGUAATT against Tial1 | inactive: 1.15
83 | GUAAGGGCGGUUCUAAGAGTT against Ggnbp1 | inactive: 1.27
84 | GCGAAAGAGAGAGUGACUUTT against Olfr812 | inactive: 0.829
85 | GGAGAAUCUUAGAGAUUAUTT against Pramel1 | inactive: 0.722
86 | GGUUGAUGAUGUUGUGAAATT against Mrps15 | inactive: 0.427
87 | GGCUGUUGUAUUCAGACCATT against Ackr3 | inactive: -0.399
88 | GGUUGAACGGACAGAAAGGTT against Cpne3 | inactive: -0.731

Row | Sequence | z-score
89 | CCUUGAUCGUGGGACCUUUTT against Slc16a14 | inactive: -0.304
90 | GUCUGCAUCACCUUCACCATT against Lhb | inactive: -0.301
91 | CCCUGACUACCUCUACCAUTT against Rab44 | inactive: 0.366
92 | CCUUAUUUAGCUAAAGGAGTT against Rasl2-9 | inactive: -0.35
93 | GCAAAUUUACCUCGGUUUUTT against Olfr46 | inactive: 0.388
94 | GCAAGUUCAUUAAACCAUATT against Rec8 | inactive: 0.629
95 | GGGAAUGGCGCAGACAAUGTT against Mllt10 | inactive: 1.09
96 | CCAAAUAUGUACUUCAUGGTT against Adipor1 | inactive: -0.147
97 | GGACUACGUACAGUCCAUGTT against Eef1b2 | inactive: 0.482
98 | GGAACUUGACAUUGACAUATT against Klrb1b | inactive: 0.0485
99 | GUCUGGAGCCCUGUAUUCCTT against Nradd | inactive: -0.645
100 | GCUGUUUGACUAAAUGAACTT against Tlr13 | inactive: -0.228
101 | GGGUUGAAUCACAAUUUGUTT against Ube2e1 | inactive: 1.1
102 | GGCCAAAUUCAACUAGUUCTT against Nudc | inactive: -0.176
103 | GGCCGUGUUAUCCAGAUUGTT against Prkcd | inactive: 1.43
104 | GGAGAUGAAUUGAUGACCCTT against Strap | inactive: -1.06
105 | GGCACUAAGGAAGAAAAAATT against Iqcd | inactive: -1.59
106 | GGGUAUUUUCACUGAAAGUTT against Ltbp3 | inactive: 0.431
107 | CCUUAAGGAACUAGGAUUCTT against Lgr5 | inactive: 1.05
108 | CCAGCAACCUGAAAUACCUTT against Vmn2r66 | inactive: -0.852

Five entries picked at random from the list so far, as already listed:
Row | Sequence | z-score
89 | CCUUGAUCGUGGGACCUUUTT against Slc16a14 | inactive: -0.304
102 | GGCCAAAUUCAACUAGUUCTT against Nudc | inactive: -0.176
99 | GUCUGGAGCCCUGUAUUCCTT against Nradd | inactive: -0.645
105 | GGCACUAAGGAAGAAAAAATT against Iqcd | inactive: -1.59
107 | CCUUAAGGAACUAGGAUUCTT against Lgr5 | inactive: 1.05

Laid out differently: results already given
Row,Sequence,z-score
100,GCUGUUUGACUAAAUGAACTT against Tlr13,inactive: -0.228
101,GGGUUGAAUCACAAUUUGUTT against Ube2e1,inactive: 1.1
102,GGCCAAAUUCAACUAGUUCTT against Nudc,inactive: -0.176

— PubChem BioAssay AID1508600 (Functional Genomics Laboratory (NCATS/FGL), 2020)
